Values from PubChem BioAssay AID1259308 (NCATS, 2017)
Shown is one part, drawn at random, of about 59,000 reagents. About 1,510 of them (2.6%) count as active. 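Calls use total luciferase alone and ignore viability, so some active siRNAs may act by altering cell number.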 Not all columns of the deposit are shown.

Test: 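Knock-downs that increase output of a recombinant reporter protein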 (primary screen)
Cell system: human HEK293 embryonic kidney cells stably expressing firefly luciferase (HEK-CMV-Luc2-Hygro)
Reagent: single siRNA against human genes, 0.8 pmol siRNA per well
Timing: 72 h
Read-out: 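Reporter luminescence and viable-cell signal on separate replicate plates, given as percent of non-targeting control and median/MAD z-scores, plus per-cell luciferase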
Direction: total luciferase, z-score and total luciferase, % of control: higher = more reporter protein produced
Hit rule: 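An siRNA counts as active if its total luciferase robust z-score exceeds 3; genes with two or more such siRNAs out of three were retested with fresh siRNAs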
Meaning of the calls: active = raised luciferase; inactive = no rise

gene symbol	PubChem SID	total luciferase, z-score	total luciferase, % of control	call
KCNJ6 (potassium inwardly rectifying channel subfamily J member 6)	SID160776178	-0.921	63.6	inactive
KCNJ6 (potassium inwardly rectifying channel subfamily J member 6)	SID160776179	-0.287	76.2	inactive
KCNJ6 (potassium inwardly rectifying channel subfamily J member 6)	SID160776180	1.94	120	inactive
LACRT (lacritin)	SID160753552	0.328	88.4	inactive
LACRT (lacritin)	SID160753553	-2.34	35.4	inactive
LACRT (lacritin)	SID160753554	2.49	131	inactive
C3P1 (complement 3 precursor pseudogene)	SID160765871	0.194	85.7	inactive
C3P1 (complement 3 precursor pseudogene)	SID160765872	2.19	125	inactive
C3P1 (complement 3 precursor pseudogene)	SID160765873	1.5	112	inactive
KLK2 (kallikrein related peptidase 2)	SID160776299	-1.23	57.5	inactive
KLK2 (kallikrein related peptidase 2)	SID160776300	-1.88	44.5	inactive
KLK2 (kallikrein related peptidase 2)	SID160776301	0.155	85	inactive
FKBP6P2 (FKBP6 pseudogene 2)	SID160768323	1.07	103	inactive
FKBP6P2 (FKBP6 pseudogene 2)	SID160768324	0.0173	82.2	inactive
FKBP6P2 (FKBP6 pseudogene 2)	SID160768325	-0.0799	80.3	inactive
PDYN (prodynorphin)	SID160714081	3.43	150	active
PDYN (prodynorphin)	SID160714083	0.333	88.5	inactive
PDYN (prodynorphin)	SID160714084	-0.425	73.4	inactive
SLC35G2	SID160750480	0.0729	83.3	inactive
SLC35G2	SID160750482	-0.851	65	inactive
SLC35G2	SID160750483	0.0463	82.8	inactive

5 entries from above, arranged by “total luciferase, z-score”, high to low:
gene symbol	PubChem SID	total luciferase, z-score	total luciferase, % of control	call
PDYN (prodynorphin)	SID160714081	3.43	150	active
PDYN (prodynorphin)	SID160714083	0.333	88.5	inactive
FKBP6P2 (FKBP6 pseudogene 2)	SID160768324	0.0173	82.2	inactive
FKBP6P2 (FKBP6 pseudogene 2)	SID160768325	-0.0799	80.3	inactive
PDYN (prodynorphin)	SID160714084	-0.425	73.4	inactive

Continued:
gene symbol	PubChem SID	total luciferase, z-score	total luciferase, % of control	call
DNAI4 (dynein axonemal intermediate chain 4)	SID160749518	0.86	99	inactive
DNAI4 (dynein axonemal intermediate chain 4)	SID160749519	-0.791	66.2	inactive
DNAI4 (dynein axonemal intermediate chain 4)	SID160749520	-1.14	59.1	inactive
ANAPC5 (anaphase promoting complex subunit 5)	SID160740800	-0.0845	80.2	inactive
ANAPC5 (anaphase promoting complex subunit 5)	SID160740802	0.347	88.8	inactive
ANAPC5 (anaphase promoting complex subunit 5)	SID160740803	-0.842	65.1	inactive
GPAA1 (glycosylphosphatidylinositol anchor attachment 1)	SID160720700	-0.452	72.9	inactive
GPAA1 (glycosylphosphatidylinositol anchor attachment 1)	SID160720701	2.12	124	inactive
GPAA1 (glycosylphosphatidylinositol anchor attachment 1)	SID160720702	-0.167	78.6	inactive
RBMY1F (RNA binding motif protein Y-linked family 1 member F)	SID160724890	-0.527	71.4	inactive
RBMY1F (RNA binding motif protein Y-linked family 1 member F)	SID160759727	-1.68	48.5	inactive
RBMY1F (RNA binding motif protein Y-linked family 1 member F)	SID160759728	3.61	154	active
FRMD4B (FERM domain containing 4B)	SID160735567	0.169	85.2	inactive
FRMD4B (FERM domain containing 4B)	SID160735568	-0.905	63.9	inactive
FRMD4B (FERM domain containing 4B)	SID160735569	-0.0779	80.3	inactive
GTF2E1 (general transcription factor IIE subunit 1)	SID160774685	-0.367	74.6	inactive
GTF2E1 (general transcription factor IIE subunit 1)	SID160774686	2.52	132	inactive
GTF2E1 (general transcription factor IIE subunit 1)	SID160774689	3.3	147	active
